Source: patent publication US20180002444A1 (ROCKEFELLER UNIVERSITY, published 2018)
These are yes or no findings as the source states them, for the method shown. Some entries that bind do so weakly or less than the wild type.

T1: recombinant human MERTK (human, UniProt Q12866 26-499, limits assumed)
T1 construct: Analyte in solution in biolayer interferometry; also called hMer
T1 sequence: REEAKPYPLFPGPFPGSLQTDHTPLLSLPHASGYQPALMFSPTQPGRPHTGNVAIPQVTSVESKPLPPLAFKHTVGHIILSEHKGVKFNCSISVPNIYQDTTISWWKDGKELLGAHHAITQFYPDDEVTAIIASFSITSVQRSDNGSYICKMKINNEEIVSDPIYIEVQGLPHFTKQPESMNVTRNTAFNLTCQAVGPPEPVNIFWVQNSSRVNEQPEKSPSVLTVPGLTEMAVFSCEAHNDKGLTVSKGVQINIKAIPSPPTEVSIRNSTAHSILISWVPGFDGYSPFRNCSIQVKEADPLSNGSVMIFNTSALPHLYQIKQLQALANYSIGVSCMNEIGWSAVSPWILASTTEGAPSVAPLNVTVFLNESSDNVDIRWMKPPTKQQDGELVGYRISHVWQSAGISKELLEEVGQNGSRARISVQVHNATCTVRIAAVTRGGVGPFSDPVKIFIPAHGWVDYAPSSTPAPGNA

T2: recombinant mouse MERTK (mouse) (UniProt Q60805)
T2 sequence (looked up): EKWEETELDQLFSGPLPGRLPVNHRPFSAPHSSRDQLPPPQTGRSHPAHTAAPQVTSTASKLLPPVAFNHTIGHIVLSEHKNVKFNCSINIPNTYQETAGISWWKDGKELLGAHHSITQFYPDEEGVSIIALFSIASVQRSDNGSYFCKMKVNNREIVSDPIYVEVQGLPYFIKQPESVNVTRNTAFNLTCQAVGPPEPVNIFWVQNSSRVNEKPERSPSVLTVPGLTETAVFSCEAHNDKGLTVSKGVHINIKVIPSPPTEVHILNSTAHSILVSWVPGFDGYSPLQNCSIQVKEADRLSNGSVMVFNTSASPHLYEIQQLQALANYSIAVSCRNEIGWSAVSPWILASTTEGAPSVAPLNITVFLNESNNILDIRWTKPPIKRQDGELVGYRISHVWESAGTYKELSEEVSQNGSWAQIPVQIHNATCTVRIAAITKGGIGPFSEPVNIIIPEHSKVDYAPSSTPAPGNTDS


What was measured:
recombinant human MERTK = molecular target: T1, recombinant human MERTK; assay: biolayer interferometry
[1] = molecular target: T2, recombinant mouse MERTK (mouse); assay: biolayer interferometry

binding (recombinant human MERTK) | binding [1] | Binder
binds |  | antibody M6 (antibody, V domains shown, mouse hybridoma monoclonal antibody; also called Mer-M6) VH: QVKLEESGPELKKPGETVKISCKASGYTFTNYGMNWVKQAPGKGLKWMGWINTYTGEPTYADDFKGRFVFSLETSASTAYLQINNLKNEDMATYFCARKSTVVSRYFDVWGAGTTVTVSS VL: DIVLTQTHKFMSTSVGDRVSITCKASQDVGDAVTWCQQKPGQPPKLLIYWASTRHTGVPDRFTGSGSGTDFTLTINNVQSEDLADYFCQQYRSYPLTFGAGTKLELKR
binds | binds | antibody M19 (antibody, V domains shown, mouse hybridoma monoclonal antibody; also called Mer-M19) VH: EVQLEESGPDLKKPGETVKISCKASNYTFTDYSMHWVKQAPGKGLKWVGWINTDTGEPTYADDFKGRFAFSLETSASTAYLQINNLKNEDTATYFCARWFGAMDYWGQGTSVTVSS VL: DIVITQSHKFMSTSVGDRVSITCKASQDVTNVVAWYQQKPGQSPKLLIYSASYRYTGVPDRFTGSGSGTDFTFTISSVQAEDLAVYYCQQYYRTPRTFGGGTKLEIKR
